The target in assay [1] is N-terminally His-tagged CD109 (UniProt Q6YHK3). Nature of the assay: co-IP; lysate (DPBS + 1 % Triton X-100) of HEK293T stably expressing N-terminally His-tagged CD109 (A1); precipitated with Ni-NTA agarose; western blot for endogenous DSG2 and CD109. Background: A western blot detects proteins with antibodies after separation by electrophoresis.
Assay [2] has as its target HA-tagged DSG2 (desmoglein-2) (UniProt Q14126). Kind of assay: co-IP; HEK293T stably expressing HA-tagged DSG2 (C2C), transiently transfected with untagged CD109; lysate in DPBS + 1 % Triton X-100; HA-tag (6E2) antibody and Dynabeads Protein G, 4 °C; western blot for CD109.

By UniProt entry, the sequences of proteins in these tests, tags left out. Residues count along the entry.
UniProt Q6YHK3, residues 22-1420: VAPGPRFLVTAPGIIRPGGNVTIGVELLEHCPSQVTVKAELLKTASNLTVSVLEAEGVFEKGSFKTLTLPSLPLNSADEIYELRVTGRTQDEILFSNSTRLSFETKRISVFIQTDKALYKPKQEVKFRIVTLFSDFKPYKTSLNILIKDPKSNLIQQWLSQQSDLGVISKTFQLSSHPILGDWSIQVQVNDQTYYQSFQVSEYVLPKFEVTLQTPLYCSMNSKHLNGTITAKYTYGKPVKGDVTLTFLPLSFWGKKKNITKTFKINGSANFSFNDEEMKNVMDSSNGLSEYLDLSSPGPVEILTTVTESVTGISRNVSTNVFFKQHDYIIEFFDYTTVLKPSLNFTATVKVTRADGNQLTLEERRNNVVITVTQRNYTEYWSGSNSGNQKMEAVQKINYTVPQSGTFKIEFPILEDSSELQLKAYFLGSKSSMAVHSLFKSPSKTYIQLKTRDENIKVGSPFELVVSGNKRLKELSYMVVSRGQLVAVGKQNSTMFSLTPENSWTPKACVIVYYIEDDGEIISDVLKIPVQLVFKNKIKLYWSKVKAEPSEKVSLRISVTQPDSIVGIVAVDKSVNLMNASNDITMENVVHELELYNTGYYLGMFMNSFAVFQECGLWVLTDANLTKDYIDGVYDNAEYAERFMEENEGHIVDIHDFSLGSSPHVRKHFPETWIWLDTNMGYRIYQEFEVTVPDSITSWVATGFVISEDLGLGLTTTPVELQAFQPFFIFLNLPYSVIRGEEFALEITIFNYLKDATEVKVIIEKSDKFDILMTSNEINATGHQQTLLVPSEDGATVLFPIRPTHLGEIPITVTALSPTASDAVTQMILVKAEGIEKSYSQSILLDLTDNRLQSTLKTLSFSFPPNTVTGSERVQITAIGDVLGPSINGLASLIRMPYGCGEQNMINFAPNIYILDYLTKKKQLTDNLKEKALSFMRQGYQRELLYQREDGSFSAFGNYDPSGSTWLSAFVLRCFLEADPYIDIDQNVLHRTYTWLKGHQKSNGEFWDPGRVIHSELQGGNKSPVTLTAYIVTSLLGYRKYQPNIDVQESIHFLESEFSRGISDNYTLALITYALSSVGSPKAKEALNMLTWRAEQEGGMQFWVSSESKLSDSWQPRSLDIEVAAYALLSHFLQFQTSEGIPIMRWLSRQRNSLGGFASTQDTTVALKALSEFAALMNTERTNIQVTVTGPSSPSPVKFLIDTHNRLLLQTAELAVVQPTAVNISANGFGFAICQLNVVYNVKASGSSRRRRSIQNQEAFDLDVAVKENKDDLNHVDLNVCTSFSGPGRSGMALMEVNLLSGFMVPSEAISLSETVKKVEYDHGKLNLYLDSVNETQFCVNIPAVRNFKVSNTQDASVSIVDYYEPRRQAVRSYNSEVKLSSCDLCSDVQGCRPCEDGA
UniProt Q14126, residues 50-1118: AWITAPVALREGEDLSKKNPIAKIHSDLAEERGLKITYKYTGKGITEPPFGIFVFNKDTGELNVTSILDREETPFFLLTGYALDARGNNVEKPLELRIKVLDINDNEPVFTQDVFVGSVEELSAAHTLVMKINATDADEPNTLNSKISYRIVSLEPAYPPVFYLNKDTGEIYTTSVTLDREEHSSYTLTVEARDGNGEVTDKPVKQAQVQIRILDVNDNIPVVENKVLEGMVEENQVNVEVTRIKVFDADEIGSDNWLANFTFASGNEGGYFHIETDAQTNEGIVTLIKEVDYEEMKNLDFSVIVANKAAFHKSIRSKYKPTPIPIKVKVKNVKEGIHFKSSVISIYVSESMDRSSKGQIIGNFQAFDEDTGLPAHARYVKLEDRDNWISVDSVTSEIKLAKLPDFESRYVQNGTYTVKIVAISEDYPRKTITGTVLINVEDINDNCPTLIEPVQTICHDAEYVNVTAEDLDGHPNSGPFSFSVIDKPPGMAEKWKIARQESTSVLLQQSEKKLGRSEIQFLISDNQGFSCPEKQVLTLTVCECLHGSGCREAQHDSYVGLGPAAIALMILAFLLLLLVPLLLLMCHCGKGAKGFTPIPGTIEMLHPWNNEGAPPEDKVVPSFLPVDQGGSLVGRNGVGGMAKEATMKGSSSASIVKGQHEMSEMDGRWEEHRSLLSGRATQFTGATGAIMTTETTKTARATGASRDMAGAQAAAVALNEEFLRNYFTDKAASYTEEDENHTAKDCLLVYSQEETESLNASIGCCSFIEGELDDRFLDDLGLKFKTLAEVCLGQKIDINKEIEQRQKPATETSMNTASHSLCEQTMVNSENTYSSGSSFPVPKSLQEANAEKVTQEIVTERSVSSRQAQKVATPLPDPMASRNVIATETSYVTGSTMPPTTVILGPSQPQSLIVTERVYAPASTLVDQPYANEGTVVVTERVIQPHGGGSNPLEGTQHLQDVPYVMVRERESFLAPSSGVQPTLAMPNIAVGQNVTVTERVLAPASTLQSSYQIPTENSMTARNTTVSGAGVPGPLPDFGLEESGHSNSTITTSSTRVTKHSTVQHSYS

Results on two substances are retold here after publication PMC10984026.

Results are given in words; binding and its absence hold for the method and conditions named. Binding seen in cells or lysates may run through a third protein. Some results given as binding are weak or reduced against the parent protein; the word gives no strength.

For the substance “desmoglein-2 (DSG2), endogenous (from UniProt Q14126 50-1118)”, the binding entry in assay [1] was “binds”. In the case of “untagged CD109 (from UniProt Q6YHK3 22-1420)”, the binding entry in assay [2] is reported as “binds”.
